Experimental data as given in US20110003849A1, “SOLUBLE EPOXIDE HYDROLASE INHIBITORS, COMPOSITIONS CONTAINING SUCH COMPOUNDS AND METHODS OF TREATMENT” (priority 2008, published 2011).

Chains of the proteins cited; added tags and fusions are not shown.
UniProt P34913, whole entry: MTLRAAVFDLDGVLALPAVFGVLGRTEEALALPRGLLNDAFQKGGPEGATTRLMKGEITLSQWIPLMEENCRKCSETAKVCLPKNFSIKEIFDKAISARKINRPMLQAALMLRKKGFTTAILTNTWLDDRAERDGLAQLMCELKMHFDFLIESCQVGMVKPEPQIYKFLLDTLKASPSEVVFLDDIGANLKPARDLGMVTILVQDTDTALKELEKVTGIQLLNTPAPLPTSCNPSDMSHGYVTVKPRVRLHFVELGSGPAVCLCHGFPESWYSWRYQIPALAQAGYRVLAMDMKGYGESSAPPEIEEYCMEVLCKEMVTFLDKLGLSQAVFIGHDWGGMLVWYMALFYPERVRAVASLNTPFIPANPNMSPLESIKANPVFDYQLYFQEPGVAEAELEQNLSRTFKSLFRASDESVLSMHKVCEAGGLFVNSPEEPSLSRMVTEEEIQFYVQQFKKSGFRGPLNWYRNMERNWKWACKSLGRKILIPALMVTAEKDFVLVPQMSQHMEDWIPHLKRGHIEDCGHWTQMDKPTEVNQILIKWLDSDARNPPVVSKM

Target: human sEH enzyme (Homo sapiens, UniProt P34913)
Assay: sEH Human Enzyme Assay (fluorescence based enzyme in vitro assay)
Conditions: read-out: IC50 [nM] for human sEH enzyme inhibition; recombinant full length human sEH about 1 nM, fluorescence substrate S7 10 uM, pH7.0, 25° C.
Source text: Preparation of Recombinant sEH Human Enzyme
The DNA for expressing sEH was designed based on a […] sEH cDNA, modified to optimize for expression both in E. coli and insect cells. The designed DNA fragment encodes a protein sequence that is identical to full length human sEH, and the DNA was synthesized in vitro. The DNA was then subcloned into the pET100 vector that will generate a fusion protein with an N-terminal His-tag. The recombinant protein was expressed in E. coli. The sEH enzyme was affinity purified by a Ni^++ column. His-tag was removed by Enter Kinase (EK) digestion. The purified enzyme aliquots were frozen and held at −80° C. for later use.
Fluorescence Based Enzyme In Vitro Assay,
For each assay (100 ul), an aliquot of enzymes (about 1 nM final concentration) was incubated with a fluorescence substrate, S7 (10 uM final concentration), in sEH assay buffer (25 mM HEPES, pH7.0, 0.1 mg/ml BSA) in a 96-well plate. The kinetic reaction reading (Ex330/Em465) was conducted using a plate reader, Spectra max (Molecular Devices) at 25° C.

Cn1cc(-c2noc(C3(C)CC4CCC3N(C(=O)Nc3ccc(C(F)(F)F)cc3)C4)n2)c2ccccc21 (stereo not shown)
IC50: 2 nM

The structures given here were assigned with low confidence; some may be wrong.
